Source: publication PMC10486081

Amino acid sequences for entries named in this document (tags omitted).
UniProt O95835: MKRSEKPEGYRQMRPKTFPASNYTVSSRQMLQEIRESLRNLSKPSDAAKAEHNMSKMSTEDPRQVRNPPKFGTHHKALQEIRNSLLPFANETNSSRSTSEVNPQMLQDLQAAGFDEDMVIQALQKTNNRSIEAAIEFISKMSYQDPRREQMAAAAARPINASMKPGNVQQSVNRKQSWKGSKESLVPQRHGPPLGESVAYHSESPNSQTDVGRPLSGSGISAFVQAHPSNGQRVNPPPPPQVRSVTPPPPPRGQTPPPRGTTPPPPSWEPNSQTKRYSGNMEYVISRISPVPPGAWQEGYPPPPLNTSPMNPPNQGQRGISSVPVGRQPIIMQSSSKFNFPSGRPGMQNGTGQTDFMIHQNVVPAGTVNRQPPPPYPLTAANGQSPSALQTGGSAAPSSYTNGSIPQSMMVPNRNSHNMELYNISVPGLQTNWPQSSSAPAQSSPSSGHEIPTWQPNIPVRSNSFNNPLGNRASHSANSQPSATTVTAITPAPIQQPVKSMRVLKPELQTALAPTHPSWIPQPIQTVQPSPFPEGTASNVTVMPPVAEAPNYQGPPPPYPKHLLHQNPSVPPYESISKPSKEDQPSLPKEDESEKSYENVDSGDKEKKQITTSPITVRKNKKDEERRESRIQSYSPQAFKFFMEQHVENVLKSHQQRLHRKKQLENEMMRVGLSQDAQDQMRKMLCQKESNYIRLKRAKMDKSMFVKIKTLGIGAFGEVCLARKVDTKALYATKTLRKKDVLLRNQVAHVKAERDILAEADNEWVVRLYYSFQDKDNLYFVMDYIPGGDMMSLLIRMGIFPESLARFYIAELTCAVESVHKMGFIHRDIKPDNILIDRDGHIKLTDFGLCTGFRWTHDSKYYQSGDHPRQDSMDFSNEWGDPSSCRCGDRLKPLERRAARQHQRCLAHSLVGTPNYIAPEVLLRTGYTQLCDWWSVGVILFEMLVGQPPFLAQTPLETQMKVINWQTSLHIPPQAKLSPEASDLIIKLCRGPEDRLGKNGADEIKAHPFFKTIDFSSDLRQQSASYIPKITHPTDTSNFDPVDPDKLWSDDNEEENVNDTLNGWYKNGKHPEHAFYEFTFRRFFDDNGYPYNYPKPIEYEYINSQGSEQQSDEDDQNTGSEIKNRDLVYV
UniProt O43791: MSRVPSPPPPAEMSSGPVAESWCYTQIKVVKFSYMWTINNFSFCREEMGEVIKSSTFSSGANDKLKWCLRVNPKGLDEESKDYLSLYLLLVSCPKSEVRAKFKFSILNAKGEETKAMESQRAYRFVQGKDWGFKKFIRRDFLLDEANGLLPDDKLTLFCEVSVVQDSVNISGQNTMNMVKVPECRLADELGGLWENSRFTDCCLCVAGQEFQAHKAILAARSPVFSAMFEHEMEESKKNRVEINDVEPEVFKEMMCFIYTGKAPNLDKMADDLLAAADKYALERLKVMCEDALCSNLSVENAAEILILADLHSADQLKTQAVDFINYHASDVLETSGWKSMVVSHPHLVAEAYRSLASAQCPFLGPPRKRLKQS

Molecular target: LATS1 (Large tumor suppressor kinase 1), endogenous in bladder cancer cells (human (endogenous in T24)) (UniProt O95835)
Assay: affinity purification with mass spectrometry; IP with LATS1 antibodies in T24 cells followed by mass spectrometric detection

binding: binds
Substance: SPOP (speckle-type POZ, E3 ubiquitin ligase adapter), endogenous in bladder cancer cells (from UniProt O43791 1-374)

Results are given in words; binding and its absence hold for the method and conditions named. Binding seen in cells or lysates may run through a third protein. A yes stands for co-enrichment or nearness to the bait. Other partners may have been found.
